From US5773019A, “Implantable controlled release device to deliver drugs directly to an internal portion of the body” (The University of Kentucky Research Foundation, priority 1995, dated 1998)

Tests used:
[1] = 5 mg subconjunctival injection, 1, 3 and 7 days
in vivo = conditions: rabbit, vitreous

For `O=C(O)c1cn(C2CC2)c2cc(N3CCNCC3)c(F)cc2c1=O` [ciprofloxacin], which aqueous ciprofloxacin concentration [1] is on record?
Its aqueous ciprofloxacin concentration is less than 0.2 µg/mL.

What about the vitreous ciprofloxacin concentration [1] of the same compound?
Its vitreous ciprofloxacin concentration is less than 0.2 µg/mL.

What about the concentration at 336 h (in vivo) of the same compound?
Its concentration at 336 h is greater than 1000 ng/mL.
